Measurements reported in PubChem BioAssay AID1259308 (NCATS, 2017)

- Assay: 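Genes whose loss raises luciferase production in HEK293 cells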 (primary screen)
- Cell system: human HEK293 embryonic kidney cells stably expressing firefly luciferase (HEK-CMV-Luc2-Hygro)
- Reagents: single siRNA against human genes, 0.8 pmol siRNA per well
- Time to read-out: 72 h
- Measurement: 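Reporter luminescence and viable-cell signal on separate replicate plates, given as percent of non-targeting control and median/MAD z-scores, plus per-cell luciferase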
- Direction: total luciferase, z-score: higher = more reporter protein produced
- Rule for the call: 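An siRNA counts as active if its total luciferase robust z-score exceeds 3; genes with two or more such siRNAs out of three were retested with fresh siRNAs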
- Meaning of the calls: active = raised luciferase; inactive = no rise
This is one part, drawn at random, of about 59,000 reagents. About 1,510 of them (2.6%) count as active. 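Calls use total luciferase alone and ignore viability, so some active siRNAs may act by altering cell number.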 A number with no mark means an inactive call. Reagents against one gene are numbered here. Further read-outs or replicates are left out here.

PRH1 (proline rich protein HaeIII subfamily 1) #1 → total luciferase, z-score: 2.13
PRH1 (proline rich protein HaeIII subfamily 1) #2 → total luciferase, z-score: -1.9
PRH1 (proline rich protein HaeIII subfamily 1) #3 → total luciferase, z-score: -0.952
CFAP418 (cilia and flagella associated protein 418) #1 → total luciferase, z-score: -1.35
CFAP418 (cilia and flagella associated protein 418) #2 → total luciferase, z-score: -1.51
CFAP418 (cilia and flagella associated protein 418) #3 → total luciferase, z-score: 0.823
SLC34A2 #1 → total luciferase, z-score: -0.543
SLC34A2 #2 → total luciferase, z-score: 1.52
SLC34A2 #3 → total luciferase, z-score: -0.532
SIAH2 (siah E3 ubiquitin protein ligase 2) #1 → total luciferase, z-score: 1.91
SIAH2 (siah E3 ubiquitin protein ligase 2) #2 → total luciferase, z-score: 0.76
SIAH2 (siah E3 ubiquitin protein ligase 2) #3 → total luciferase, z-score: 2.74
DNAH10 (dynein axonemal heavy chain 10) #1 → total luciferase, z-score: 0.717
DNAH10 (dynein axonemal heavy chain 10) #2 → total luciferase, z-score: 5.28 (active)
DNAH10 (dynein axonemal heavy chain 10) #3 → total luciferase, z-score: 0.979
KRT6A (keratin 6A) #1 → total luciferase, z-score: -0.181
KRT6A (keratin 6A) #2 → total luciferase, z-score: -0.517
KRT6A (keratin 6A) #3 → total luciferase, z-score: -0.255
GLIS1 (GLIS family zinc finger 1) #1 → total luciferase, z-score: -0.737
GLIS1 (GLIS family zinc finger 1) #2 → total luciferase, z-score: -0.503
GLIS1 (GLIS family zinc finger 1) #3 → total luciferase, z-score: 1.55

Quoted from the entries so far for reference:
PRH1 (proline rich protein HaeIII subfamily 1) #1 → total luciferase, z-score: 2.13
PRH1 (proline rich protein HaeIII subfamily 1) #2 → total luciferase, z-score: -1.9
